Consider one molecule from publication PMC3213134, “A Non-Motor Microtubule Binding Site Is Essential for the High Processivity and Mitotic Function of Kinesin-8 Kif18A” (PLoS ONE, 2011).

The test concerns the target Kif18A^1-777, GFP- and Myc-tagged copies co-expressed in 293T cells (human) (UniProt Q8NI77). In words: co-IP; 293T cells co-expressing GFP- and Myc-tagged Kif18A^1-777; lysis buffer with 0.5% Triton-X100 and 300 mM NaCl; GFP antibodies on Protein G beads; blots probed with GFP and myc antibodies.

No constants are given. Whether binding was seen depends on the method and setting. Binding seen in cells or lysates may run through a third protein. Some binding calls cover weakened binding; strength is not graded here. Tags and fused reporters may be left off the sequences shown.

B1: His-Kif18A^1-777-GFP (domain or fragment, human, UniProt Q8NI77 1-777, looked up)
chain: MSVTEEDLCHHMKVVVRVRPENTKEKAAGFHKVVHVVDKHILVFDPKQEEVSFFHGKKTTNQNVIKKQNKDLKFVFDAVFDETSTQSEVFEHTTKPILRSFLNGYNCTVLAYGATGAGKTHTMLGSADEPGVMYLTMLHLYKCMDEIKEEKICSTAVSYLEVYNEQIRDLLVNSGPLAVREDTQKGVVVHGLTLHQPKSSEEILHLLDNGNKNRTQHPTDMNATSSRSHAVFQIYLRQQDKTASINQNVRIAKMSLIDLAGSERASTSGAKGTRFVEGTNINRSLLALGNVINALADSKRKNQHIPYRNSKLTRLLKDSLGGNCQTIMIAAVSPSSVFYDDTYNTLKYANRAKDIKSSLKSNVLNVNNHITQYVKICNEQKAEILLLKEKLKAYEEQKAFTNENDQAKLMISNPQEKEIERFQEILNCLFQNREEIRQEYLKLEMLLKENELKSFYQQQCHKQIEMMCSEDKVEKATGKRDHRLAMLKTRRSYLEKRREEELKQFDENTNWLHRVEKEMGLLSQNGHIPKELKKDLHCHHLHLQNKDLKAQIRHMMDLACLQEQQHRQTEAVLNALLPTLRKQYCTLKEAGLSNAAFESDFKEIEHLVERKKVVVWADQTAEQPKQNDLPGISVLMTFPQLGPVQPIPCCSSSGGTNLVKIPTEKRTRRKLMPSPLKGQHTLKSPPSQSVQLNDSLSKELQPIVYTPEDCRKAFQNPSTVTLMKPSSFTTSFQAISSNINSDNCLKMLCEVAIPHNRRKECGQEDLDSTFTICEDIK
notes: not shown: His6, N-terminal, kept; GFP, C-terminal, kept
Take B1: the binding entry is listed as “binds”.
